Test results: PubChem BioAssay AID504847 (National Center for Advancing Translational Sciences (NCATS), 2011)
Several values for one entry are separate records, joined by “and”; a condition that tells them apart may be missing. Equal values may be shown once. The campaign covered roughly 400,000 compounds. About 3,700 (0.93%) were called active. This list was built around the results that the source calls inconclusive (neither active nor inactive); the mix of calls is not that of the screen. The call rests on the fitted dose curve; in most records, active means well fitted inhibition curve with a large enough effect; inconclusive means small, poorly fitted or top-dose-only effect, or another doubt; inactive means no such curve, though single readings can be large or run the other way. Potencies of inconclusive entries are doubtful fits and often do not repeat.

Chains of the proteins cited; added tags and fusions are not shown. Lines headed by an entry give the natural chain unless they say otherwise; changes in a name come on top.
UniProt P11473: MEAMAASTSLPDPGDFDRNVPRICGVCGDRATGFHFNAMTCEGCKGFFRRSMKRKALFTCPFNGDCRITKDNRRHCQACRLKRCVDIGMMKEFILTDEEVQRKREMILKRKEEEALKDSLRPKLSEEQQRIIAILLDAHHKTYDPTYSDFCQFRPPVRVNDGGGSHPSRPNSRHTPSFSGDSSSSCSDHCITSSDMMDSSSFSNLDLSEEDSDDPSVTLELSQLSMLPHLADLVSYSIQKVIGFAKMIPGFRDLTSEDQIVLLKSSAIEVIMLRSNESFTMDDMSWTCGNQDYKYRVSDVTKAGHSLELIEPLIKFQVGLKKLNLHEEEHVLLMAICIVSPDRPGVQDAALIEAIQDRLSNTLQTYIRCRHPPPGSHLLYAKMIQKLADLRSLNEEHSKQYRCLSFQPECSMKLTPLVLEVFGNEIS

Molecular target: Vitamin D3 receptor (Homo sapiens) (UniProt P11473)
Experiment: Inhibitors of the vitamin D receptor (VDR): qHTS
Details: VDR-SRC2-3 peptide fluorescence polarization, 2 h; max response, negative = inhibition: hits give low values
Outline: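 Measured by FP: displacement of SRC2-3 coactivator peptide from VDR by library compounds, following a two-hour ambient incubation.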
On the % scale 0 is the no-effect control and ±100 the full control effect; potency means the concentration at half of the fitted maximal effect.

| SMILES | Potency | max response, negative = inhibition |
| --- | --- | --- |
| Cc1nn(-c2ccccc2)c(OC(=O)C(C)C)c1Sc1ccc(Cl)cc1 | active: 89.1 µM |  |
| O=C(/C=C/c1ccccc1)c1ccc2c(c1)OCO2 | inconclusive: 31.6 µM [inhibitor, full curve] |  |
| CC1CCCN(CCCNC(=O)c2ccc3c(c2)N(Cc2ccccc2F)C(=O)c2ccccc2S3(=O)=O)C1 (configuration not stated) |  | inactive: -11.3% |
| Oc1c(CN2CCCCC2)cc(Br)c2cccnc12 |  | inactive: -29.1% |
| CCCN(CC(=O)Nc1ccccc1C)C(=O)COC(=O)CSc1ccc([N+](=O)[O-])cc1 | inconclusive: 63.1 µM [inhibitor, single point] |  |
| CCC(C)(C)n1nnnc1C(c1ccc(O)cc1)N1CCc2ccccc2C1 (configuration not stated) | inconclusive: 56.2 µM [inhibitor, single point] |  |
| COc1ccccc1NC(=O)c1cnc(SCC(=O)NCC2CCCO2)n(C)c1=O (configuration not stated) | inconclusive: 70.8 µM [inhibitor, single point] |  |
| COc1ccc(C)cc1NC(=O)CSc1ccc(-c2ccco2)nn1 | inconclusive: 89.1 µM [inhibitor, single point] |  |
| Cc1c(Br)c([N+](=O)[O-])nn1CC(=O)NCc1ccccc1 | inconclusive: 20 µM [inhibitor, partial curve, poor fit] |  |
| COc1cccc(/C=C/c2[nH]c(=O)[nH]c(=O)c2[N+](=O)[O-])c1O | active: 22.4 µM |  |
| CN1C(=O)Cc2cc(S(=O)(=O)N3CCN(c4ccccc4F)CC3)ccc21 |  | inactive: 12% and inactive: -6.6% |
| COCC(=O)Nc1cc(C)cn(Cc2c(F)cccc2Cl)c1=O | inconclusive: 35.5 µM [inhibitor, partial curve, poor fit] |  |
| Sc1oc(-c2ccccc2)cc1C=Nc1ccccc1 | inconclusive: 89.1 µM [inhibitor, single point] |  |
| O=C(O)Cc1ccc(N=Nc2c(O)c(C(=O)O)cc3ccccc23)cc1 | inconclusive: 79.4 µM [inhibitor, single point] |  |
| CCc1ccc(N=C2NC(=O)/C(=C/c3cc(Br)c(OCC(=O)O)c(OC)c3)S2)cc1 | inconclusive: 35.5 µM [inhibitor, single point] |  |
| O=C(CCl)N1c2ccccc2OCC1c1ccccc1 (configuration not stated) |  | inactive: -26.5% |
| CN(c1cccc(NC(=O)c2ccc(N(C)S(=O)(=O)c3ccccc3)cc2)c1)S(C)(=O)=O | inconclusive: 31.6 µM [inhibitor, single point] |  |
| Cc1ccc(O)c(NC(=S)NC(=O)Cc2ccc(Cl)cc2)c1 | inconclusive: 100 µM [inhibitor, partial curve, poor fit] |  |
| CC(=O)c1cccc(OCC(O)CN2CCN(S(=O)(=O)c3c(F)cccc3F)CC2)c1 (configuration not stated) |  | inactive: -26.4% |
| COc1ccc(N2CCN(C(=O)C3CCN(S(=O)(=O)c4cccs4)CC3)CC2)cc1 | inconclusive: 89.1 µM [inhibitor, single point] |  |
| S=C(NNc1cccc(Cl)c1)NC1CCCCC1 | inconclusive: 79.4 µM [inhibitor, partial curve, poor fit] |  |
| CCOC(=O)c1cc(-c2ccccc2)sc1NC(=O)C(C)C | inconclusive: 44.7 µM [inhibitor, partial curve, poor fit] |  |
| COC(=O)c1sc(=S)n(-c2cc(F)ccc2F)c1N | active: 79.4 µM |  |

| SMILES | Potency | max response, negative = inhibition |
| --- | --- | --- |
| N=C1/C(=C\c2coc3ccccc3c2=O)C(=O)N=C2SC(c3ccncc3)=NN12 | active: 28.2 µM |  |
| CN(C)C(=O)c1ccc(-c2nccc(Nc3ccc(F)cc3)n2)cc1 | active: 50.1 µM |  |
| Cc1ccc2c(c1)C(=O)C(=O)N2Cc1ccc(Cl)cc1 | active: 25.1 µM |  |
| CCOc1ccc(CN2CCNC(=O)C2CC(=O)NCCCOc2cccnc2)cc1 (configuration not stated) |  | inactive: -5.45% |
| COC(CNC(=O)c1ccc2c3c(onc13)-c1ccccc1C2=O)OC | active: 39.8 µM |  |
| Cc1ccc(NC(=O)NC(=O)CN2CCC(C(N)=O)CC2)c(C)c1 | inconclusive: 25.1 µM [inhibitor, partial curve] |  |
| Cc1cccc(N2CCN(C(=O)c3cn(CC(C)C)c(=O)c4c3c3ccccc3n4C)CC2)c1C | inconclusive: 89.1 µM [inhibitor, partial curve, poor fit] |  |
| CCCCN1CC2([N+](=O)[O-])C=CC(=O)C([N+](=O)[O-])(C1)C2CC(=O)c1ccccc1 (configuration not stated) | inconclusive: 70.8 µM [inhibitor, single point] |  |
| NC(=O)SCC(=O)Nc1ccc(Cl)cc1 | active: 28.2 µM |  |
| CC(C)(C)C(=O)C(Cl)C(=O)Nc1ccccc1 (configuration not stated) | active: 20 µM |  |
| Cc1ccc(NC(=S)Nc2ccc3[nH]c(=O)[nH]c3c2)cc1 | inconclusive: 20 µM [inhibitor, partial curve, poor fit] |  |
| O=C(N=Nc1c(O)[nH]c2ccccc12)c1cccc(S(=O)(=O)N2CCCCC2)c1 | inconclusive: 50.1 µM [inhibitor, partial curve] |  |
| CCOc1ccc(C(C)NC(=S)NC2CCCCC2)cc1OCC (configuration not stated) |  | inactive: -11% |
| CC(C)(C)c1cc(Cl)ccc1OCCOCCN1CCCC1 |  | inactive: -1.67% |
| CC[C@@]1(C(=O)OC)N[C@H](CN(C)S(=O)(=O)c2ccc(C(F)(F)F)cc2)[C@@H]2C(=O)N(C)C(=O)[C@@H]21 |  | inactive: -19.5% |
| CCOC(=O)c1ccc(NC(=O)CSc2nnc(COc3ccccc3OC)n2C)cc1 | inconclusive: 70.8 µM [inhibitor, single point] |  |
| CCCc1nc2sc3c(c2c(=O)[nH]1)CCCC3 | active: 79.4 µM |  |
| CCCCN(CCCC)CCNC(=O)c1cn(CC)c2ccc(S(=O)(=O)N(C)C3CCCCC3)cc2c1=O |  | inactive: -1.05% and inactive: -12.9% |
| Cc1ccc(Cn2nnnc2CN2CCC(NC(=O)C(C)(C)C)CC2)cc1 |  | inactive: -1.45% |
| O=C(c1ccncc1)N1CCC2(CCN(Cc3ccncc3)CC2)CC1 | inconclusive: 89.1 µM [inhibitor, partial curve, poor fit] |  |
| CC/C=C\C/C=C\C/C=C\CCCCCCCCCCCC(=O)O | active: 50.1 µM |  |
| CSc1ccc(/C=C/C(=O)c2ccc(O)cc2)cc1 | inconclusive: 39.8 µM [inhibitor, partial curve, poor fit] |  |
| CCOC(=O)N1CCN(c2c(F)cc3[nH]c(=S)[nH]c3c2Br)CC1 | inconclusive: 70.8 µM [inhibitor, single point] |  |

| SMILES | Potency | max response, negative = inhibition |
| --- | --- | --- |
| CCCc1cc(-c2nc(-c3ccc(Br)cc3)cs2)ccn1 |  | inactive: -11.8% |
| Cc1ccc(NC(=O)CSc2nnc(-c3ccco3)c(-c3ccco3)n2)cc1 | inconclusive: 44.7 µM [inhibitor, partial curve, poor fit] |  |
| COc1ccc(C(=O)CN2CCN(CCN3C(=O)c4cccc5cccc(c45)C3=O)CC2)cc1 | inconclusive: 31.6 µM [inhibitor, single point] |  |
| Cc1ccc2c(c1)-c1c(cnc3cc(-c4ccccc4)nn13)CO2 |  | inactive: -11.2% |
| COc1cccc(N2CCN(C(=O)CCc3c(C)nc4c(c3C)c(=O)n(C)c(=O)n4C)CC2)c1 | inconclusive: 89.1 µM [inhibitor, single point] |  |
| N#Cc1ccccc1Cn1cc(/C=C/[N+](=O)[O-])c2ccccc21 | active: 31.6 µM |  |
| COC(=O)c1ccc(C(NC(=O)OCc2ccccc2)/C(F)=C/[C@@H](C)C(=O)NCc2ccc(OC)c(OC)c2)cc1 (some centres not stated) | inconclusive: 89.1 µM [inhibitor, partial curve, poor fit] |  |
| O=[N+]([O-])c1c(Nc2ccc(O)cc2)cc(Cl)c2nonc12 | inconclusive: 10 µM [inhibitor, full curve, poor fit] |  |
| O=C(O)c1cc(-c2cccs2)nc2cc3c(cc12)OCCO3 | inconclusive: 100 µM [inhibitor, partial curve, poor fit] |  |
| CC(=O)Nc1ccc(C2=CC(=O)C[C@H](c3ccc4c(c3)OCO4)C2)cc1 | inconclusive: 89.1 µM [inhibitor, partial curve] |  |
| COc1ccc(O)c(CNc2ccccc2F)c1 | inconclusive: 100 µM [inhibitor, single point] |  |
| CN(C)C(=S)c1ccccc1 | inconclusive: 70.8 µM [inhibitor, partial curve] |  |
| Nc1nc2cc(S(=O)(=O)NC3=NCCCCC3)ccc2s1 | inconclusive: 44.7 µM [inhibitor, full curve, poor fit] |  |
| COc1ccccc1C(=O)NC(=S)NC12CC3CC(CC(C3)C1)C2 | inconclusive: 100 µM [inhibitor, single point] |  |
| O=C(NC1CC1)c1ccc(CSCc2cccc(F)c2)o1 | inconclusive: 100 µM [inhibitor, single point] |  |
| CC(=O)NCCNC(=O)c1ccc(CSc2ccc(Cl)cc2)cc1 |  | inactive: 16.8% |
| COc1ccc(Cn2c(SCc3ccc(C(=O)NC4CCCCC4)cc3)nc3ccncc32)cc1 |  | inactive: -6.19% |
| S=c1[nH]nc(-c2ccco2)n1/N=C/C(Cl)=C/c1ccccc1 | inconclusive: 35.5 µM [inhibitor, partial curve, poor fit] |  |
| CN(C)c1ccnc(NCc2ccccc2)c1C#N | inconclusive: 79.4 µM [inhibitor, single point] |  |
| O=C(O)c1cc2ccccc2c(Cc2cc3ccccc3c(C(=O)O)c2O)c1O (tested in a mixture with another compound) | active: 14.1 µM |  |
| CCS(=O)(=O)Nc1ccc2[nH]c(=O)[nH]c2c1 | inconclusive: 89.1 µM [inhibitor, single point] |  |

Rewritten as tab-separated lines: part of the list above.
SMILES	Potency	max response, negative = inhibition
CCCc1cc(-c2nc(-c3ccc(Br)cc3)cs2)ccn1		inactive: -11.8%
Cc1ccc(NC(=O)CSc2nnc(-c3ccco3)c(-c3ccco3)n2)cc1	inconclusive: 44.7 µM [inhibitor, partial curve, poor fit]	
COc1ccc(C(=O)CN2CCN(CCN3C(=O)c4cccc5cccc(c45)C3=O)CC2)cc1	inconclusive: 31.6 µM [inhibitor, single point]	
Cc1ccc2c(c1)-c1c(cnc3cc(-c4ccccc4)nn13)CO2		inactive: -11.2%
COc1cccc(N2CCN(C(=O)CCc3c(C)nc4c(c3C)c(=O)n(C)c(=O)n4C)CC2)c1	inconclusive: 89.1 µM [inhibitor, single point]	
N#Cc1ccccc1Cn1cc(/C=C/[N+](=O)[O-])c2ccccc21	active: 31.6 µM	
COC(=O)c1ccc(C(NC(=O)OCc2ccccc2)/C(F)=C/[C@@H](C)C(=O)NCc2ccc(OC)c(OC)c2)cc1 (some centres not stated)	inconclusive: 89.1 µM [inhibitor, partial curve, poor fit]	
O=[N+]([O-])c1c(Nc2ccc(O)cc2)cc(Cl)c2nonc12	inconclusive: 10 µM [inhibitor, full curve, poor fit]	
O=C(O)c1cc(-c2cccs2)nc2cc3c(cc12)OCCO3	inconclusive: 100 µM [inhibitor, partial curve, poor fit]	
COc1ccc(O)c(CNc2ccccc2F)c1	inconclusive: 100 µM [inhibitor, single point]	
CN(C)C(=S)c1ccccc1	inconclusive: 70.8 µM [inhibitor, partial curve]	
Nc1nc2cc(S(=O)(=O)NC3=NCCCCC3)ccc2s1	inconclusive: 44.7 µM [inhibitor, full curve, poor fit]	
COc1ccccc1C(=O)NC(=S)NC12CC3CC(CC(C3)C1)C2	inconclusive: 100 µM [inhibitor, single point]	
O=C(NC1CC1)c1ccc(CSCc2cccc(F)c2)o1	inconclusive: 100 µM [inhibitor, single point]	
CC(=O)NCCNC(=O)c1ccc(CSc2ccc(Cl)cc2)cc1		inactive: 16.8%
S=c1[nH]nc(-c2ccco2)n1/N=C/C(Cl)=C/c1ccccc1	inconclusive: 35.5 µM [inhibitor, partial curve, poor fit]	
CN(C)c1ccnc(NCc2ccccc2)c1C#N	inconclusive: 79.4 µM [inhibitor, single point]	
CCS(=O)(=O)Nc1ccc2[nH]c(=O)[nH]c2c1	inconclusive: 89.1 µM [inhibitor, single point]	
